One molecule from paper PMC5155164 can be followed below.

No constants are given. Whether binding was seen depends on the method and setting. Binding seen in cells or lysates may run through a third protein. Some binding calls cover weakened binding; strength is not graded here.

For this assay, the target named is GFP-p62 (UniProt Q13501). As to the kind of experiment: co-IP; HeLa cells transfected with GFP-vector or the GFP-tagged protein for 16 h (48 h for the Htt(1–548) constructs); GFP-tagged proteins pulled down with GFP-Trap_MA beads (Chromotek); endogenous CCT2 detected by blot.

B1: CCT2 (protein, UniProt P78371 1-535)
chain: MASLSLAPVNIFKAGADEERAETARLTSFIGAIAIGDLVKSTLGPKGMDKILLSSGRDASLMVTNDGATILKNIGVDNPAAKVLVDMSRVQDDEVGDGTTSVTVLAAELLREAESLIAKKIHPQTIIAGWREATKAAREALLSSAVDHGSDEVKFRQDLMNIAGTTLSSKLLTHHKDHFTKLAVEAVLRLKGSGNLEAIHIIKKLGGSLADSYLDEGFLLDKKIGVNQPKRIENAKILIANTGMDTDKIKIFGSRVRVDSTAKVAEIEHAEKEKMKEKVERILKHGINCFINRQLIYNYPEQLFGAAGVMAIEHADFAGVERLALVTGGEIASTFDHPELVKLGSCKLIEEVMIGEDKLIHFSGVALGEACTIVLRGATQQILDEAERSLHDALCVLAQTVKDSRTVYGGGCSEMLMAHAVTQLANRTPGKEAVAMESYAKALRMLPTIIADNAGYDSADLVAQLRAAHSEGNTTAGLDMREGTIGDMAILGITESFQVKRQVLLSAAEAAEVILRVDNIIKAAPRKRVPDHHPC
As to B1, the binding entry is reported as “binds”.
